The supplement of paper PMC12819154, “High-throughput peptide-centric local stability assay extends protein–ligand identification to membrane proteins, tissues and bacteria” (Nature Structural & Molecular Biology, 2025)
The list shows a part of the results. Small differences around the control level are noise.

Amino acid sequences for entries named in this document (tags omitted). A change or cut given only in a name is not applied to a line headed by its entry.
UniProt Q8R4D1: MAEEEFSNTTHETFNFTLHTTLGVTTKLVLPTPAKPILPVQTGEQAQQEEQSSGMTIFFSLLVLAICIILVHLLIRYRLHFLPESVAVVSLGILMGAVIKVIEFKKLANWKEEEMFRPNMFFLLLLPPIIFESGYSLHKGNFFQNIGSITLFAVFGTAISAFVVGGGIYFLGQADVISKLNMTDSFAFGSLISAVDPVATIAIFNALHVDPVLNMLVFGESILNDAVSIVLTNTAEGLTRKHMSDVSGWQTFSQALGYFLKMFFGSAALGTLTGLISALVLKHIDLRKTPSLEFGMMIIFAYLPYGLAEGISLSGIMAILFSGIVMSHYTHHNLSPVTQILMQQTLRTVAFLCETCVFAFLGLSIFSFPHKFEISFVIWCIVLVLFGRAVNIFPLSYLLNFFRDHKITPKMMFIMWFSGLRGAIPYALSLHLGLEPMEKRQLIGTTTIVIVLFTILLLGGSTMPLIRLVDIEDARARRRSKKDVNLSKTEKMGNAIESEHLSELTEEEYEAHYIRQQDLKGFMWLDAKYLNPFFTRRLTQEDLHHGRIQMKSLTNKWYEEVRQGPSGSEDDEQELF
UniProt Q8VCC8: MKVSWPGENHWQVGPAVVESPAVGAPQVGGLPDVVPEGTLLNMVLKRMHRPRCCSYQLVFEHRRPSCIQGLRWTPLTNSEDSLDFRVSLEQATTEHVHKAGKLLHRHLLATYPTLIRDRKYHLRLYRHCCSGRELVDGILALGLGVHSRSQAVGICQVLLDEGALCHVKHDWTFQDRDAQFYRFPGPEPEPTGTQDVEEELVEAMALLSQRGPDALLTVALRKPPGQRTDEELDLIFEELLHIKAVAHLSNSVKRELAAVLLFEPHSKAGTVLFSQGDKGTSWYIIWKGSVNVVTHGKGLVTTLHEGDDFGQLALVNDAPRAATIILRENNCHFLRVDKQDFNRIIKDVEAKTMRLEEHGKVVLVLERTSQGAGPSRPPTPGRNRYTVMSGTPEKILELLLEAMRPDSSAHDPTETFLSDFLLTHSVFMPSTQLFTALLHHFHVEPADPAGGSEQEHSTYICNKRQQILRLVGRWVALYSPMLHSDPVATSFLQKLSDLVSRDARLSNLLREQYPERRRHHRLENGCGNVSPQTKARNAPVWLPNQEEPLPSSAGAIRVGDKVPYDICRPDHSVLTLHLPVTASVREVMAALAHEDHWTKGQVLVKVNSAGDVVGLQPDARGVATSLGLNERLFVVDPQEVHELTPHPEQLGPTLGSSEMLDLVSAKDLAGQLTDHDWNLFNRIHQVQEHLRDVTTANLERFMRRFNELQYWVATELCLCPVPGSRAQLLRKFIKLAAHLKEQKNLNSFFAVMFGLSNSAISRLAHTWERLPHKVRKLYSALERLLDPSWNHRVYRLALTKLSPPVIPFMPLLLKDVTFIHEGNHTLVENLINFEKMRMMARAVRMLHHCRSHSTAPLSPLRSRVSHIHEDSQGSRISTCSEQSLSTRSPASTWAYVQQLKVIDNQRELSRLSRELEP
UniProt Q8VCE2, whole entry: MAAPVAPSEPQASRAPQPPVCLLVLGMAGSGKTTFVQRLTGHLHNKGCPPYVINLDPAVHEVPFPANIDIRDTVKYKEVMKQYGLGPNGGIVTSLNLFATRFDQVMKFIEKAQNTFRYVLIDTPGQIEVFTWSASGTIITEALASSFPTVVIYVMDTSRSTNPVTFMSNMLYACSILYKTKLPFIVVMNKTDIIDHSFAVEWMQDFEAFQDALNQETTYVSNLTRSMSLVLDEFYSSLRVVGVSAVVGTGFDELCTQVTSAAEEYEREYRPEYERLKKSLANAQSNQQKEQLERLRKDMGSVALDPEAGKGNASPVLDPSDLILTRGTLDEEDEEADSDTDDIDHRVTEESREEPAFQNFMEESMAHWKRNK
UniProt Q8VCG4: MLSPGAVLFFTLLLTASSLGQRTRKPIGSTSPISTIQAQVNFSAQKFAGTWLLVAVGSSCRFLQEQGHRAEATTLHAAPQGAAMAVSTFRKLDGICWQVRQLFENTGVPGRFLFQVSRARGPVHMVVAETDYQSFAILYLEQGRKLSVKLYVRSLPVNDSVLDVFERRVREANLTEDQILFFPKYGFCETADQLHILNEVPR
UniProt Q8VEK3: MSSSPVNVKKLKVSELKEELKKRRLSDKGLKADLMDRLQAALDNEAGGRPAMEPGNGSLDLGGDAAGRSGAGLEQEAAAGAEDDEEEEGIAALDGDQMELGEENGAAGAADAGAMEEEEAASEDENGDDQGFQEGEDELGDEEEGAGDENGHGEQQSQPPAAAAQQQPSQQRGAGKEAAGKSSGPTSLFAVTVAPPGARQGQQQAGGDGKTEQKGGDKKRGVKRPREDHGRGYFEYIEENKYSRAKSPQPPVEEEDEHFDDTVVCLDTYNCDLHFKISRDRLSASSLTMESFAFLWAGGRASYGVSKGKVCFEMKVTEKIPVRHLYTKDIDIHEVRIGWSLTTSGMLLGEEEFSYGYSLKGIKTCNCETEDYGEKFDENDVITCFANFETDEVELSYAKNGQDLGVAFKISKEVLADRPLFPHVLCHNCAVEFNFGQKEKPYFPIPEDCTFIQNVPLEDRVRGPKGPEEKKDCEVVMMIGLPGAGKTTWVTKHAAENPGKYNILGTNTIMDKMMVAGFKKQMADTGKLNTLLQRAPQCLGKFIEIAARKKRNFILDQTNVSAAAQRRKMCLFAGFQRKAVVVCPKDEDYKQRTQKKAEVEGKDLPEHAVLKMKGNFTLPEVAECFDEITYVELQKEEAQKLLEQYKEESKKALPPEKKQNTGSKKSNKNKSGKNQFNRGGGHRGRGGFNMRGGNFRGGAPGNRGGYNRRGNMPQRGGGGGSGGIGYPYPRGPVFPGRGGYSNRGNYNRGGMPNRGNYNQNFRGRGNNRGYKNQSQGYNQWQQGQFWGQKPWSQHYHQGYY
UniProt Q8VDQ1: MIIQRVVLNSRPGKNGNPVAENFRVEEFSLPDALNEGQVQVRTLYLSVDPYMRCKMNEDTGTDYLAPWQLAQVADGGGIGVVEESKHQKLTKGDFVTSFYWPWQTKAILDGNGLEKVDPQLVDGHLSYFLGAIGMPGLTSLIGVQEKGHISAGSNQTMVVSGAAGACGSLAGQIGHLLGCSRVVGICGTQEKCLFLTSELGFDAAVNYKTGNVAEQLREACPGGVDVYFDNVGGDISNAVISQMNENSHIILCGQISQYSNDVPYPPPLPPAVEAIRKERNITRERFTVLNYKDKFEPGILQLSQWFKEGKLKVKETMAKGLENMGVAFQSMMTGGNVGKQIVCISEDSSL
UniProt Q8R3Y5: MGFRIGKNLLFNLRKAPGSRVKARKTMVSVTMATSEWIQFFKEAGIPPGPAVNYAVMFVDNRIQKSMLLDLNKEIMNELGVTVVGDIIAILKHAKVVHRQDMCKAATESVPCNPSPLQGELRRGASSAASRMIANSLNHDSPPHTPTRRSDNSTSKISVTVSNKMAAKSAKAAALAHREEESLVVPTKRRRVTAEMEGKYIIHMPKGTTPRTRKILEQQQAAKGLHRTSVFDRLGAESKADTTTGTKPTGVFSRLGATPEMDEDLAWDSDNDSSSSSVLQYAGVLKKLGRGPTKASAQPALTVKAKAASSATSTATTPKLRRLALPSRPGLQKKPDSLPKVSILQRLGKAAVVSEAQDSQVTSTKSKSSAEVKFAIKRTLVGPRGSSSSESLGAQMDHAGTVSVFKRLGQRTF
UniProt Q8R4E9: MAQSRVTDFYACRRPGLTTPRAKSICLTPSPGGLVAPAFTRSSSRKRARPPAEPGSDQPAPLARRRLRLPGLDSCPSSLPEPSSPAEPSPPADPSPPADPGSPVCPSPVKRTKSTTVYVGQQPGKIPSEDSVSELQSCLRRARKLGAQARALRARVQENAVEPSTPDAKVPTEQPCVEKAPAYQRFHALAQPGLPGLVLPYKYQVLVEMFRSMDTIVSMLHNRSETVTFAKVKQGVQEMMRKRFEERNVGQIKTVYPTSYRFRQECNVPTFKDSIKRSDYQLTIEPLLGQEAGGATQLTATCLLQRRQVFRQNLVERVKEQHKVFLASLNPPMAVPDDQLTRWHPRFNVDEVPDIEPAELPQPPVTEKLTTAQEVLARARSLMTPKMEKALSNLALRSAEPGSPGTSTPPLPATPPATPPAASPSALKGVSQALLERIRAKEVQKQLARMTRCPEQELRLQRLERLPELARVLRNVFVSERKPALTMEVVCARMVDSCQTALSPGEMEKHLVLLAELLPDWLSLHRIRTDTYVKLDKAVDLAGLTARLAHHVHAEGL
UniProt Q8R4H2: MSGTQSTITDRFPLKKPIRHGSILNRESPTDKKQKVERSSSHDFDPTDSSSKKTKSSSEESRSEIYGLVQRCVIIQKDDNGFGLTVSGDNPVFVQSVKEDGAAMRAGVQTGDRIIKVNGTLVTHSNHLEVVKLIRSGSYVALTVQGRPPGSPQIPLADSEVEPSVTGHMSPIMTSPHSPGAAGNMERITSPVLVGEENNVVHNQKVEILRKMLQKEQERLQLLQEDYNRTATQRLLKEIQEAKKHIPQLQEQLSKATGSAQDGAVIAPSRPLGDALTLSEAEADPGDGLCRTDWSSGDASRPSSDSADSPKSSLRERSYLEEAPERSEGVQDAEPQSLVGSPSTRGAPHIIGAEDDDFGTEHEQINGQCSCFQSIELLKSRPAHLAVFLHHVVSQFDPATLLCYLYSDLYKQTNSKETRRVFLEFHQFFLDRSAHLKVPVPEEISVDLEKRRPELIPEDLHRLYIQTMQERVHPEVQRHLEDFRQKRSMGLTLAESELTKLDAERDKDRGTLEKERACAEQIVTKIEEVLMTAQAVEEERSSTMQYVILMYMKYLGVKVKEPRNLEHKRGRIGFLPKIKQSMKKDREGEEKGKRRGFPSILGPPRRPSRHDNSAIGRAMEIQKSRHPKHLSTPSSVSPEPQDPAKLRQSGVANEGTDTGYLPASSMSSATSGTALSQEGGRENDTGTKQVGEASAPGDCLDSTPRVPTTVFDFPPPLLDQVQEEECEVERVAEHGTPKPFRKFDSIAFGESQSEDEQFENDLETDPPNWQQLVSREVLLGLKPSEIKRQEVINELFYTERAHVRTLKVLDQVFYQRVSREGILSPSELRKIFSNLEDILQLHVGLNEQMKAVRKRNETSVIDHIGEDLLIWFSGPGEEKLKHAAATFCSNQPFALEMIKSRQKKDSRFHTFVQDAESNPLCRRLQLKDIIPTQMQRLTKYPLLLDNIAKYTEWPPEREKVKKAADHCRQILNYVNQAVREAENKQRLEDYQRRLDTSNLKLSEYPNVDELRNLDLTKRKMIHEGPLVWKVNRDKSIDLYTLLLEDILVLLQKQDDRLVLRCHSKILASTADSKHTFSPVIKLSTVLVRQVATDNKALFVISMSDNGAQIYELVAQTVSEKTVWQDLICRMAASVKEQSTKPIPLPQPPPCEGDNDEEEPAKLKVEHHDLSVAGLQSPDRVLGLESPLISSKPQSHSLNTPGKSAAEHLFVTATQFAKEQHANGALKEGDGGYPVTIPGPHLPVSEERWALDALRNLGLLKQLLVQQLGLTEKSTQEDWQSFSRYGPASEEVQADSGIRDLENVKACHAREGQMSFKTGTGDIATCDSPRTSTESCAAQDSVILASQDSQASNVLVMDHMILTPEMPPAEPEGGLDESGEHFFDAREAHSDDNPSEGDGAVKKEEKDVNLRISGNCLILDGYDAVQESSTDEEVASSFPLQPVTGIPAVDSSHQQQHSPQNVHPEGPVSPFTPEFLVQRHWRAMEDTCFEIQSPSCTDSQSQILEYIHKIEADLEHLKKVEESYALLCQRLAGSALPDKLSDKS
UniProt Q8VBZ0: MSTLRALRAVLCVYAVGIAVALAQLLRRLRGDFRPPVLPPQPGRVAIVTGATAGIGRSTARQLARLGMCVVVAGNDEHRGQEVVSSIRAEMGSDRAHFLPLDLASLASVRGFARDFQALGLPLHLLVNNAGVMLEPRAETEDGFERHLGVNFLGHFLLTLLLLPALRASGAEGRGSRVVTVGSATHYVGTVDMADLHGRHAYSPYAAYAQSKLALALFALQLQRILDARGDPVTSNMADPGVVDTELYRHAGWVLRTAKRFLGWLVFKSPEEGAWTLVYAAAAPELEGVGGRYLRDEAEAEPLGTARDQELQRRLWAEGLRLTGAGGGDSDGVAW
UniProt Q8VCP8, whole entry: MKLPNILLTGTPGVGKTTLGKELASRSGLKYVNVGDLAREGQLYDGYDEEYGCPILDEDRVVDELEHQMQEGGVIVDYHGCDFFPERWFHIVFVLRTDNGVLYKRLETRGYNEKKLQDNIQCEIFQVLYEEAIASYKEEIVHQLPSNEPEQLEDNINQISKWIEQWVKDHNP
UniProt Q8VC48: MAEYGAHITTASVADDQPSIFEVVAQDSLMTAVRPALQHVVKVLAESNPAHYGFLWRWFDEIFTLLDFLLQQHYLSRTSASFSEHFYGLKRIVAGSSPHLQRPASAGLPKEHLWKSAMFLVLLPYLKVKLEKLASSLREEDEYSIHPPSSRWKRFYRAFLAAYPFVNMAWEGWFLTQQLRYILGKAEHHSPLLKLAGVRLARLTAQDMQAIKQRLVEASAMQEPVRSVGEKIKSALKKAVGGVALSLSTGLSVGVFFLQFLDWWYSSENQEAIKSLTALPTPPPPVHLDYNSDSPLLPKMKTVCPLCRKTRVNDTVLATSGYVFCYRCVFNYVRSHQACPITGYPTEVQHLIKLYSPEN

These targets were tested with CN[C@@H]1C[C@H]2O[C@@](C)([C@@H]1OC)n1c3ccccc3c3c4c(c5c6ccccc6n2c5c31)C(=O)NC4 [staurosporine] (assay: log2 fold change of tryptic peptide abundance, ligand vs vehicle (limited proteolysis) (log2 ratio); higher = more trypsin-susceptible (destabilized)). Conditions: ligand concentration: 20 uM; sample: mouse liver crude lysate; replicate design: treated separately.

| Target | log2 fold change |
| --- | --- |
| UniProt Q8R4D1 (peptide sequence: GFMWLDAK, peptide start residue: 521) | 0.185 |
| UniProt Q8VCZ6 (peptide sequence: DHENYVACLR, peptide start residue: 470) | -0.139 |
| UniProt Q8VC74 (peptide sequence: DLSAAFCAK, peptide start residue: 317) | -0.283 |
| UniProt Q8VC56 (peptide sequence: VLELSCPK, peptide start residue: 228) | -0.222 |
| UniProt Q8VEH3 (peptide sequence: DLAGALDEK, peptide start residue: 133) | -0.129 |
| UniProt Q8VC66 (peptide sequence: SLPASPSTSDFR, peptide start residue: 537) | 0.296 |
| UniProt Q8VCC8 (peptide sequence: YTVMSGTPEK, peptide start residue: 498) | 0.0387 |
| UniProt Q8R326 (peptide sequence: HEHQLMLMR, peptide start residue: 312) | 0.56 |
| UniProt Q8VDK1 (peptide sequence: ECGIWLSLGGFHER, peptide start residue: 115) | -0.279 |
| UniProt Q8R3S6 (peptide sequence: QKYTDHLQSYVIYSLGQPLEK, peptide start residue: 757) | 0.529 |
| UniProt Q8VCE2 (peptide sequence: KDMGSVALDPEAGK, peptide start residue: 297) | 0.557 |
| UniProt Q8VCC6 (peptide sequence: HAGGGAGKPGGSWER, peptide start residue: 251) | 0.846 |
| UniProt Q8R5M0 (peptide sequence: SSAGAQAFAR, peptide start residue: 257) | 0.00711 |
| UniProt Q8R4H7 (peptide sequence: LIVDVLSR, peptide start residue: 328) | 0.151 |
| UniProt Q8VE11 (peptide sequence: TSLCLKEPSLLPVK, peptide start residue: 562) | 0.203 |
| UniProt Q8VCM3 (peptide sequence: RMCFVDPVR, peptide start residue: 86) | 0.246 |
| UniProt Q8VCG3 (peptide sequence: LVTCTGYHQVR, peptide start residue: 198) | 0.57 |
| UniProt Q8VC42 (peptide sequence: SGGATGVVVK, peptide start residue: 40) | -0.883 |
| UniProt Q8R3Y8 (peptide sequence: QLGELLTDGVR, peptide start residue: 329) | -0.217 |

| Target | log2 fold change |
| --- | --- |
| UniProt Q8VEE1 (peptide sequence: DGAPWCGR, peptide start residue: 291) | -0.402 |
| UniProt Q8VCG4 (peptide sequence: FLFQVSR, peptide start residue: 112) | -0.283 |
| UniProt Q8VEK3 (peptide sequence: RNFILDQTNVSAAAQR, peptide start residue: 551) | -0.244 |
| UniProt Q8VDQ1 (peptide sequence: TLYLSVDPYMR, peptide start residue: 43) | 0.248 |
| UniProt Q8R418 (peptide sequence: LPSDPFTHLAPK, peptide start residue: 641) | 0.374 |
| UniProt Q8VDM6 (peptide sequence: LKVNELR, peptide start residue: 6) | 0.0902 |
| UniProt Q8R3Y5 (peptide sequence: KILEQQQAAK, peptide start residue: 214) | -0.561 |
| UniProt Q8R4U0 (peptide sequence: RFESEDDIDALAFGK, peptide start residue: 2500) | -0.166 |
| UniProt Q8R4E9 (peptide sequence: ARPPAEPGSDQPAPLAR, peptide start residue: 48) | -0.147 |
| UniProt Q8R3L5 (peptide sequence: SGELQGDEAQR, peptide start residue: 15) | 0.0592 |
| UniProt Q8VDZ4 (peptide sequence: SISYSSQK, peptide start residue: 634) | -0.246 |
| UniProt Q8R4H2 (peptide sequence: HTFSPVIK, peptide start residue: 1074) | 0.445 |
| UniProt Q8VBZ0 (peptide sequence: YLRDEAEAEPLGTAR, peptide start residue: 293) | -0.33 |
| UniProt Q8R2S9 (peptide sequence: IIENVDVITRPK, peptide start residue: 566) | 0.319 |
| UniProt Q8VC31 (peptide sequence: NWGGSDFER, peptide start residue: 220) | -0.127 |
| UniProt Q8VCP8 (peptide sequence: TDNGVLYKR, peptide start residue: 97) | 0.227 |
| UniProt Q8VCQ3 (peptide sequence: LLAAGKYEEAISCHRK, peptide start residue: 21) | -0.221 |
| UniProt Q8VC48 (peptide sequence: CVFNYVR, peptide start residue: 328) | -0.128 |

Part of the list above, set out differently.
Target	log2 fold change
UniProt Q8VDM6 (peptide sequence: LKVNELR, peptide start residue: 6)	0.0902
UniProt Q8R3Y5 (peptide sequence: KILEQQQAAK, peptide start residue: 214)	-0.561
